Experimental data: the supplement of paper PMC6078165
Values are relative to the signal before dosing, not to a vehicle control; the signal also falls without drug.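 Fibroblast labels name human fibroblasts: mostly primary ones from tissues such as uterus (C12385, HUF), lung (H6013), bone (Hs27A), adrenal (HADF) and skin (WS1), plus mammary HMF and breast cancer-associated Hs343T. The cancer cells are basal-like or mesenchymal-like triple-negative breast cancer lines. The paper calls a changed response a hit when it shifts by more than 3x the replicate standard deviation. The tissue of the other fibroblasts is not given here.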

System: Hs578T
Assay: relative JC-1 red fluorescence (viability) vs pre-drug, coculture with fibroblast (fraction); higher = more viable cancer cells
Method: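 JC-1 labelled TNBC cells cocultured 1:1 (1,500 cells each) with CellTrace Violet stained primary or stromal fibroblasts in 384-well plates in FluoroBrite medium, treated with one of 42 anticancer drugs at 0.1, 1, 10 or 100 uM. JC-1 red fluorescence (mitochondrial integrity in cancer cells only) was read by plate reader every 8 h for 72 h. Values are normalised to each well's pre-drug value. The stock of one drug was tenfold lower, so its dose labels may be too high.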

O=NN(CCCl)C(=O)NCCCl [Carmustine]
relative JC-1 red fluorescence
Details	8 h	16 h	24 h	32 h	40 h	48 h	56 h	64 h	72 h
10 µM	0.92	0.822	0.76	0.712	0.647	0.603	0.566	0.527	0.51
100 µM	0.851	0.7729	0.739	0.711	0.655	0.622	0.616	0.586	0.579

relative JC-1 red fluorescence
Details	8 h	16 h	24 h	32 h	40 h	48 h	56 h	64 h	72 h
10 µM, coculture fibroblast: C12385	0.8208	0.726	0.6625	0.58	0.508	0.475	0.444	0.43	0.415
10 µM, coculture fibroblast: H6013	0.9014	0.83151	0.795	0.768	0.7387	0.725	0.706	0.701	0.67
10 µM, coculture fibroblast: H6019	0.7892	0.684	0.635	0.543	0.491	0.459	0.419	0.399	0.373
10 µM, coculture fibroblast: H6076	0.895	0.806	0.771	0.7641	0.732	0.746	0.729	0.732	0.747
10 µM, coculture fibroblast: H6231	0.8938	0.782	0.719	0.679	0.614	0.58	0.541	0.518	0.499
10 µM, coculture fibroblast: HADF	0.91537	0.858	0.787	0.748	0.712	0.685	0.651	0.638	0.606
10 µM, coculture fibroblast: HCFa	0.9	0.835	0.778	0.73	0.671	0.653	0.624	0.621	0.587
10 µM, coculture fibroblast: HCPF	0.91915	0.8247	0.7473	0.714	0.652	0.626	0.598	0.556	0.538
10 µM, coculture fibroblast: HHSteC	0.899	0.839	0.765	0.723	0.667	0.637	0.607	0.584	0.546
10 µM, coculture fibroblast: HMF	0.9	0.81	0.745	0.7258	0.67	0.647	0.613	0.591	0.562
10 µM, coculture fibroblast: HPFa	0.92083	0.825	0.75	0.684	0.632	0.588	0.541	0.514	0.46
10 µM, coculture fibroblast: HUF	0.872	0.783	0.725	0.616	0.557	0.521	0.485	0.485	0.471
10 µM, coculture fibroblast: Hs27A	0.878	0.841	0.81	0.77	0.716	0.699	0.662	0.653	0.608
10 µM, coculture fibroblast: Hs343T	0.90097	0.795	0.745	0.723	0.662	0.64	0.587	0.561	0.548
10 µM, coculture fibroblast: WS1	0.8206	0.703	0.66	0.569	0.513	0.494	0.456	0.443	0.42
100 µM, coculture fibroblast: C12385	0.8049	0.728	0.698	0.603	0.544	0.516	0.489	0.485	0.483
100 µM, coculture fibroblast: H6013	0.8126	0.7524	0.709	0.666	0.646	0.639	0.62	0.627	0.607
100 µM, coculture fibroblast: H6019	0.745	0.661	0.638	0.545	0.51	0.499	0.472	0.451	0.422
100 µM, coculture fibroblast: H6076	0.857	0.7976	0.766	0.764	0.731	0.74	0.752	0.763	0.78
100 µM, coculture fibroblast: H6231	0.872	0.8233	0.791	0.77	0.735	0.732	0.725	0.713	0.719
100 µM, coculture fibroblast: HADF	0.905	0.879	0.8366	0.7989	0.77762	0.7675	0.7396	0.7397	0.7184
100 µM, coculture fibroblast: HCFa	0.8505	0.809	0.752	0.698	0.643	0.624	0.593	0.577	0.56
100 µM, coculture fibroblast: HCPF	0.883	0.795	0.755	0.719	0.649	0.622	0.611	0.568	0.5456
100 µM, coculture fibroblast: HHSteC	0.8362	0.77	0.721	0.674	0.641	0.608	0.588	0.577	0.549
100 µM, coculture fibroblast: HMF	0.8657	0.7724	0.711	0.67	0.609	0.58	0.552	0.526	0.504
100 µM, coculture fibroblast: HPFa	0.882	0.806	0.723	0.653	0.615	0.583	0.536	0.514	0.475
100 µM, coculture fibroblast: HUF	0.8055	0.686	0.654	0.549	0.494	0.466	0.446	0.4438	0.4438
100 µM, coculture fibroblast: Hs27A	0.85	0.84	0.809	0.758	0.715	0.716	0.681	0.681	0.64
100 µM, coculture fibroblast: Hs343T	0.868	0.769	0.728	0.716	0.642	0.618	0.581	0.557	0.538
100 µM, coculture fibroblast: WS1	0.7519	0.6547	0.62	0.517	0.465	0.452	0.432	0.437	0.435
